These are yes or no findings as the source states them, for the method shown. For some assays here: In cells and extracts the contact can be indirect. Some results given as binding are weak or reduced against the parent protein; the word gives no strength. For some assays here: Where a sequence is shown, tags or fusion partners need not be part of it. One block for each binder: values may come before it.
Experiments:
[1] = target: mouse CAD as yeast 2-hybrid bait (in the same manner as Example 1-1) (mouse) (UniProt P0A7C2+O54788); test: yeast 2-hybrid screen, mouse CAD as bait, adult mouse brain cDNA library
[2] = target: full-length ASK1 fused to the LexA DNA binding domain of pLexA (yeast 2-hybrid bait) (UniProt P0A7C2); test: yeast 2-hybrid screen, full-length ASK1 as bait, mouse brain cDNA library
[3] = target: ASK1 wild-type, full length (apoptosis signal-regulating kinase 1), in vitro translated and 35S-methionine-labelled (UniProt Q99683); test: GST pull-down on glutathione-agarose beads, SDS-PAGE
[4] = target: T1, wild type CAD (CAD-WT) (1-345), caspase-activated deoxyribonuclease, 35S-labelled (mouse) (UniProt O54788); test: as above
T1 sequence (35S label, looked up): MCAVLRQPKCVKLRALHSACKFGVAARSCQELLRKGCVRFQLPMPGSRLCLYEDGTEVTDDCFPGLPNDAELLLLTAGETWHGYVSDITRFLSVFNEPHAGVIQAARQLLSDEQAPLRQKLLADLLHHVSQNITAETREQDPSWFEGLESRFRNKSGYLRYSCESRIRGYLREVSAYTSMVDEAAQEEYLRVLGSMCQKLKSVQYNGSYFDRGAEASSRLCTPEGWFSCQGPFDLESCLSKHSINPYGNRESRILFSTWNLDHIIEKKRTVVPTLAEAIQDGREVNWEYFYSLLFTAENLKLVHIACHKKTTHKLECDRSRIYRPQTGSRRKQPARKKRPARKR

Chains of the proteins cited; added tags and fusions are not shown. Lines headed by an entry give the natural chain unless they say otherwise; changes in a name come on top.
UniProt P0A7C2: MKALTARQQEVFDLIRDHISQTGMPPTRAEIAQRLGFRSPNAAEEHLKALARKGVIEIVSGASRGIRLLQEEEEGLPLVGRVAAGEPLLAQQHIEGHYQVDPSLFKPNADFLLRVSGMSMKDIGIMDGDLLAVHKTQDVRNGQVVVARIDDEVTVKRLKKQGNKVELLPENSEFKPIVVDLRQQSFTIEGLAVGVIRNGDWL

[5] = target: T2, ASK1-NT (ASK1 from amino acid 1 to 656) (UniProt Q99683); test: GST-CIA pull-down of 35S-labelled ASK1 mutants, SDS-PAGE
T2 sequence (35S-methionine label, looked up): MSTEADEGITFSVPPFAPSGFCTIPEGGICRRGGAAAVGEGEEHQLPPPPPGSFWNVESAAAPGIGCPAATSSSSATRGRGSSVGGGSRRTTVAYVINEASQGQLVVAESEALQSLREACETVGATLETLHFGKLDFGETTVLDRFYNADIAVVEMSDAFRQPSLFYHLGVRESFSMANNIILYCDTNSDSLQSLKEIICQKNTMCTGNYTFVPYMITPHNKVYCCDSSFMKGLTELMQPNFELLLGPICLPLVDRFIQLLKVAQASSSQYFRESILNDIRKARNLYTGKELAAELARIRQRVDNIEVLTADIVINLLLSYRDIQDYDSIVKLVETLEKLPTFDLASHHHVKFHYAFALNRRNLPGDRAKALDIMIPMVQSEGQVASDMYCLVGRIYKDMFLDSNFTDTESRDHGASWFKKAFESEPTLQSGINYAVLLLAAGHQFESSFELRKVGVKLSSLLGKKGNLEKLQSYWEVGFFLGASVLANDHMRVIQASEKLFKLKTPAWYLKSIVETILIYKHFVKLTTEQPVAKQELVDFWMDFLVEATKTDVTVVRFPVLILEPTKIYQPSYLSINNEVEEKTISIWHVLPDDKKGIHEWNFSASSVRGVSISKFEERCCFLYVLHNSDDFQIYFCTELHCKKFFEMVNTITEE

[6] = target: ASK1-Flag (expressed from pcDNA3-ASK1-Flag in 293 cells, immunoprecipitated with anti-Flag) (UniProt Q99683); test: immunoprecipitation using anti-Flag antibody (figure legend)
[7] = target: T3, GST-CIA-WT (GST-tagged full-length wild type mouse CIA) (mouse) (UniProt Q9D1C8); test: pull-down binding assay of CAD and its deletion mutants with CIA, SDS-PAGE
T3 sequence: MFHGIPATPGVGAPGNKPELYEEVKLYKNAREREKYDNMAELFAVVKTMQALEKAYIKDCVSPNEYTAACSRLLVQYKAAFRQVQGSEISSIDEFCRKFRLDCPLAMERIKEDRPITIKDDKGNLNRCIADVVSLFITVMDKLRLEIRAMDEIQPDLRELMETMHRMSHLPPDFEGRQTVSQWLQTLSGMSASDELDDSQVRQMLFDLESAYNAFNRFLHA

binding [6]: binds
B3: His-CIA recombinant protein (His6-tagged mouse CIA) (protein, not shown: small tags and cut ends)
chain: MFHGIPATPGVGAPGNKPELYEEVKLYKNAREREKYDNMAELFAVVKTMQALEKAYIKDCVSPNEYTAACSRLLVQYKAAFRQVQGSEISSIDEFCRKFRLDCPLAMERIKEDRPITIKDDKGNLNRCIADVVSLFITVMDKLRLEIRAMDEIQPDLRELMETMHRMSHLPPDFEGRQTVSQWLQTLSGMSASDELDDSQVRQMLFDLESAYNAFNRFLHA

binding [7]: binds
B5: wild type CAD (CAD-WT) (1-345), caspase-activated deoxyribonuclease, 35S-labelled (enzyme, mouse, UniProt O54788 1-344, looked up)
chain: MCAVLRQPKCVKLRALHSACKFGVAARSCQELLRKGCVRFQLPMPGSRLCLYEDGTEVTDDCFPGLPNDAELLLLTAGETWHGYVSDITRFLSVFNEPHAGVIQAARQLLSDEQAPLRQKLLADLLHHVSQNITAETREQDPSWFEGLESRFRNKSGYLRYSCESRIRGYLREVSAYTSMVDEAAQEEYLRVLGSMCQKLKSVQYNGSYFDRGAEASSRLCTPEGWFSCQGPFDLESCLSKHSINPYGNRESRILFSTWNLDHIIEKKRTVVPTLAEAIQDGREVNWEYFYSLLFTAENLKLVHIACHKKTTHKLECDRSRIYRPQTGSRRKQPARKKRPARKR
modifications: 35S label

Continued, binder first:

B1: mouse CIA cDNA clone from the mouse brain cDNA library in the pB42AD prey plasmid (yeast 2-hybrid) (protein, not shown: large carriers)
chain: MFHGIPATPGVGAPGNKPELYEEVKLYKNAREREKYDNMAELFAVVKTMQALEKAYIKDCVSPNEYTAACSRLLVQYKAAFRQVQGSEISSIDEFCRKFRLDCPLAMERIKEDRPITIKDDKGNLNRCIADVVSLFITVMDKLRLEIRAMDEIQPDLRELMETMHRMSHLPPDFEGRQTVSQWLQTLSGMSASDELDDSQVRQMLFDLESAYNAFNRFLHA
binding [1]: binds
binding [2]: binds

B2: GST-CIA-WT (GST-tagged full-length wild type mouse CIA) (protein, not shown: a dimerising Fc or GST)
chain: MFHGIPATPGVGAPGNKPELYEEVKLYKNAREREKYDNMAELFAVVKTMQALEKAYIKDCVSPNEYTAACSRLLVQYKAAFRQVQGSEISSIDEFCRKFRLDCPLAMERIKEDRPITIKDDKGNLNRCIADVVSLFITVMDKLRLEIRAMDEIQPDLRELMETMHRMSHLPPDFEGRQTVSQWLQTLSGMSASDELDDSQVRQMLFDLESAYNAFNRFLHA
binding [3]: binds
binding [4]: binds
binding [5]: binds

B4: GST-CIA-ΔN (CIA deficient in N-terminal amino acids 1 to 78) (protein, not shown: a dimerising Fc or GST; large carriers; small tags and cut ends)
chain: AAFRQVQGSEISSIDEFCRKFRLDCPLAMERIKEDRPITIKDDKGNLNRCIADVVSLFITVMDKLRLEIRAMDEIQPDLRELMETMHRMSHLPPDFEGRQTVSQWLQTLSGMSASDELDDSQVRQMLFDLESAYNAFNRFLHA
binding [3]: binds

Source: patent US6987089
